Experimental findings from publication PMC8478917 are described below.

The chains behind the UniProt entries cited, without tags or fusion partners.
UniProt Q5SYE7: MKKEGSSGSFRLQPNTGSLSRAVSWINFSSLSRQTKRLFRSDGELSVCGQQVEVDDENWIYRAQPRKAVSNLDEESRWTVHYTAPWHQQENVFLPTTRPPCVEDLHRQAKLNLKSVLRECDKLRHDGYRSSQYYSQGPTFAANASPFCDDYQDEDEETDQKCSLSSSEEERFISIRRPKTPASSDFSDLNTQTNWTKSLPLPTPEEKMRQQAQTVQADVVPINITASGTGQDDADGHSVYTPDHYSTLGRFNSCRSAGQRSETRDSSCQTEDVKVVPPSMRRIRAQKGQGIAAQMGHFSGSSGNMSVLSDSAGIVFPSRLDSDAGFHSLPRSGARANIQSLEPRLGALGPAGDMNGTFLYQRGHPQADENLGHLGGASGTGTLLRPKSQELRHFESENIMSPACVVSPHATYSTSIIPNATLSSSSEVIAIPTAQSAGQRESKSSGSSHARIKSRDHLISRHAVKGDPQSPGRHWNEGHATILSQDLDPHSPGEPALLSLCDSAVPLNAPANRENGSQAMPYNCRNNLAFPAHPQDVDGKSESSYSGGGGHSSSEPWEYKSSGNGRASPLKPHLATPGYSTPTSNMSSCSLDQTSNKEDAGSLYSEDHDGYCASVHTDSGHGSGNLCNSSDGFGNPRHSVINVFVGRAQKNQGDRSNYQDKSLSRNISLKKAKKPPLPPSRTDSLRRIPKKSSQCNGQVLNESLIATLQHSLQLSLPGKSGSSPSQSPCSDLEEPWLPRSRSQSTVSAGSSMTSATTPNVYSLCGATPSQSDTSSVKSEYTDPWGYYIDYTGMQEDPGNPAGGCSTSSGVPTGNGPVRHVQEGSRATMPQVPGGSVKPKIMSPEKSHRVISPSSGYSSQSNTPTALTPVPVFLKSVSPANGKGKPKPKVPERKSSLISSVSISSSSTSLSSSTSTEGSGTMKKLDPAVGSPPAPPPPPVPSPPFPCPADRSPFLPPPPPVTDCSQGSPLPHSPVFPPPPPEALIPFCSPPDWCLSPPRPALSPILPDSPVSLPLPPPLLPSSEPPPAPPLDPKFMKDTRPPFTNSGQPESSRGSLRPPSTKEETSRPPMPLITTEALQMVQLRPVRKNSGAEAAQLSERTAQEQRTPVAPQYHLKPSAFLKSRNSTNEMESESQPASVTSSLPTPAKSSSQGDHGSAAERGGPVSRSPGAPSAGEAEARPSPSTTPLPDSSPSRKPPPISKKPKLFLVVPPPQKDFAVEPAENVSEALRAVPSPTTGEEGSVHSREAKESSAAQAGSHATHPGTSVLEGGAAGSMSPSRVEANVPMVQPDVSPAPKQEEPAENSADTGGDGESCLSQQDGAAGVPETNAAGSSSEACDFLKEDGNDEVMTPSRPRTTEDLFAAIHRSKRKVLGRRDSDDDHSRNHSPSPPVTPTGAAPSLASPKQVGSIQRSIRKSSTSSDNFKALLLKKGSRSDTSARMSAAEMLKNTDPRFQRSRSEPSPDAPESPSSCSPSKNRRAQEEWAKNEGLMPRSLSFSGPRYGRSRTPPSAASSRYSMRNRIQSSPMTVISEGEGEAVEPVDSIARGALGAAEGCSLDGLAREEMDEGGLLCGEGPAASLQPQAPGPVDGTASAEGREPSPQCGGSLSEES
UniProt Q8IZP0: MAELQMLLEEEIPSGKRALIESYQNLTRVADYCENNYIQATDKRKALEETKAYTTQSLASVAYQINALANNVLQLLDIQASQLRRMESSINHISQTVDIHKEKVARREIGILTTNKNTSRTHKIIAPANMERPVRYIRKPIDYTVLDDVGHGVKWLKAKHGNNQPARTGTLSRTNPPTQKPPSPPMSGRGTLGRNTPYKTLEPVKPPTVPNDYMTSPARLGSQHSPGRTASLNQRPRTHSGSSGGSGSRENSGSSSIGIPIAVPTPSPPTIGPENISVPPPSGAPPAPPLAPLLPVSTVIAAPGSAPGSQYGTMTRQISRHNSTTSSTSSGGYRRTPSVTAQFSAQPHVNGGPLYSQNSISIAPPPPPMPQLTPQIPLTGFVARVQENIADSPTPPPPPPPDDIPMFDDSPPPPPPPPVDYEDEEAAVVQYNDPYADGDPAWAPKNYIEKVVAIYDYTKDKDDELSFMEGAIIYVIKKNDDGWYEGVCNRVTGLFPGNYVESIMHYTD

The target in this experiment is endogenous NHSL1 of MCF10A cells (human (endogenous in MCF10A)) (UniProt Q5SYE7). Briefly: co-IP; endogenous NHSL1 immunoprecipitated with polyclonal antibody 4457 from MCF10A (Abi1 blot) and B16-F1 (Scar/WAVE2 blot) lysates; non-immune rabbit IgG as control.

No constants are given. Whether binding was seen depends on the method and setting. In cells and extracts the contact can be indirect. Some results given as binding are weak or reduced against the parent protein; the word gives no strength.

As to “endogenous Abi1 of MCF10A cells (from UniProt Q8IZP0 1-508)”, the binding entry is listed as “binds”.
